The other results are listed elsewhere or left out.
Key:
Experiment in all cases: log2 fold change, soluble protein after heating vs DMSO (PISA); higher = thermal stabilisation; K562 lysate, 10 uM; active = over 0.2 and 3.5 SD of the protein, either way, in both replicates (recomputed)
[1] = compound: C#Cc1cccc(Nc2ncnc3cc(OCCOC)c(OCCOC)cc23)c1 [erlotinib]
Procedure, shortened: (§1)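 Quantification was by TMTpro 16plex LC-MS/MS with equalised channel sums, applied to the supernatant after 21,000xg for 90 min. Samples were crude K562 extract at 1 mg/mL protein in PBS pH 7.4 with 1 mM MgCl2, treated with 10 μM compound for 30 min, heated for 3 min across 48°C-58°C, pooled and brought to 0.5% NP-40 at 4°C. Values are log-two fold changes in thermal stability relative to solvent controls, from duplicates.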

Chains of the proteins cited; added tags and fusions are not shown. Lines headed by an entry give the natural chain unless they say otherwise; changes in a name come on top.
UniProt Q9Y5X1: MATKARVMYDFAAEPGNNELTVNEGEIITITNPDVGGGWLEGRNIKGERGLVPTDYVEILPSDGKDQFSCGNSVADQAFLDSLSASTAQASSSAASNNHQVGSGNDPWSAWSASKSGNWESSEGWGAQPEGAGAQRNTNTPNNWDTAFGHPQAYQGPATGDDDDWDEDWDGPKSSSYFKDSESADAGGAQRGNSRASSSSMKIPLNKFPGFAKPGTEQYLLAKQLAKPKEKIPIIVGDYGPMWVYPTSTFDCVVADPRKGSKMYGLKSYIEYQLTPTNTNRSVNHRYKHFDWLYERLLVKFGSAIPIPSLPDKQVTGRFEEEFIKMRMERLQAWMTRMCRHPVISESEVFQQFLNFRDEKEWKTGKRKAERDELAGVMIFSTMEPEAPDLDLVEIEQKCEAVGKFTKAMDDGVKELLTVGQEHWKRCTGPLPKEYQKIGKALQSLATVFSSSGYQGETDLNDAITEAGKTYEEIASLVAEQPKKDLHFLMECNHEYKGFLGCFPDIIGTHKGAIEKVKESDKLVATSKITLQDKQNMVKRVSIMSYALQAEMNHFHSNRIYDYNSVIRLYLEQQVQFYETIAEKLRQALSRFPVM
UniProt O60271: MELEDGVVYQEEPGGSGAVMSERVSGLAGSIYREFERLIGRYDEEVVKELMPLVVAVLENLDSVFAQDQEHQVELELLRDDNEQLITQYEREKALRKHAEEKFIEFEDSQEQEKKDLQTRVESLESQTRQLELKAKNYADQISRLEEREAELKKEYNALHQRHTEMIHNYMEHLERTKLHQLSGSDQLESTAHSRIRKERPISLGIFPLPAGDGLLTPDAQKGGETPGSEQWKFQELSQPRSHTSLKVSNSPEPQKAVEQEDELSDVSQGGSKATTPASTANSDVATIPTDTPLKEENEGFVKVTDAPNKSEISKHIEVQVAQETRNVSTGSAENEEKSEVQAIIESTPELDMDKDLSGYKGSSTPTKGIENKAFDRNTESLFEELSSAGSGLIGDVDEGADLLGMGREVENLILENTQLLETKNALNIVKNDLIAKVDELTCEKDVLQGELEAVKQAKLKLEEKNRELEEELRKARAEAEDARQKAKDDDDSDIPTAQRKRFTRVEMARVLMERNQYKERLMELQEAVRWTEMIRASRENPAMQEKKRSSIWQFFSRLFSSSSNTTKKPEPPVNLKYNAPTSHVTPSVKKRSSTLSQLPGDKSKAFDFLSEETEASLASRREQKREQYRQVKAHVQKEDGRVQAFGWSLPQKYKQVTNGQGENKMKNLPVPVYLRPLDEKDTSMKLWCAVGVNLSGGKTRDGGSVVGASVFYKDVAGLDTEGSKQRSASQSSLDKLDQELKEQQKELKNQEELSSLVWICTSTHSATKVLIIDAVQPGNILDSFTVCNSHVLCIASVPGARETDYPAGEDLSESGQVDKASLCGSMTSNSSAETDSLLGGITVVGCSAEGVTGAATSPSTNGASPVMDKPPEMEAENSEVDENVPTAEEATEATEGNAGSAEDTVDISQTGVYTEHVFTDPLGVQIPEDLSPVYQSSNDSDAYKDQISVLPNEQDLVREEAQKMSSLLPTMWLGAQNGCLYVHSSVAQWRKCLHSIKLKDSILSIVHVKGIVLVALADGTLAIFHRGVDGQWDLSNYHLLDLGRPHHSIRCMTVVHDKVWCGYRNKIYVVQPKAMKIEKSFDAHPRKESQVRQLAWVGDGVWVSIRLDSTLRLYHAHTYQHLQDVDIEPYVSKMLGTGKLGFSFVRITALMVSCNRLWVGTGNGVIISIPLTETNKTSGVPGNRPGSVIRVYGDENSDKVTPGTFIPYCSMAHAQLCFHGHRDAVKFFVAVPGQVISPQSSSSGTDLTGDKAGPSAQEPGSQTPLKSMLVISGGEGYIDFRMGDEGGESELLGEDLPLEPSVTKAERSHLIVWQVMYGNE
UniProt Q13424: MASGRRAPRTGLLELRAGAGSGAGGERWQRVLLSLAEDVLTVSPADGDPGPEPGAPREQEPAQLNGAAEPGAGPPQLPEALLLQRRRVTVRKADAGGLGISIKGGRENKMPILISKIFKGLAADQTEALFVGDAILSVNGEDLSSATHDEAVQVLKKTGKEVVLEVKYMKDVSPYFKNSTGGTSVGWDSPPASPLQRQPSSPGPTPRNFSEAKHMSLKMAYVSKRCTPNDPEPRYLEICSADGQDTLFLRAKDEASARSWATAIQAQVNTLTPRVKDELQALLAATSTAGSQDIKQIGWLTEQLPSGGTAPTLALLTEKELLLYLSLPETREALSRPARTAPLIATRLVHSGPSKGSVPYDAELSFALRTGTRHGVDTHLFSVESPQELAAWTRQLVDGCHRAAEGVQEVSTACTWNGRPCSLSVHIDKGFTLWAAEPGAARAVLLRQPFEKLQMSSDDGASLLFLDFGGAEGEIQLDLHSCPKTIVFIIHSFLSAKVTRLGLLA
UniProt P62314, whole entry, looked up: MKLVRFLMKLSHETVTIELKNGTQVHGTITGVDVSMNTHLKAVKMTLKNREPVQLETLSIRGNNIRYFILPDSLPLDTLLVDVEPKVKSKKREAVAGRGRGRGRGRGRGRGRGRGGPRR
UniProt Q00796: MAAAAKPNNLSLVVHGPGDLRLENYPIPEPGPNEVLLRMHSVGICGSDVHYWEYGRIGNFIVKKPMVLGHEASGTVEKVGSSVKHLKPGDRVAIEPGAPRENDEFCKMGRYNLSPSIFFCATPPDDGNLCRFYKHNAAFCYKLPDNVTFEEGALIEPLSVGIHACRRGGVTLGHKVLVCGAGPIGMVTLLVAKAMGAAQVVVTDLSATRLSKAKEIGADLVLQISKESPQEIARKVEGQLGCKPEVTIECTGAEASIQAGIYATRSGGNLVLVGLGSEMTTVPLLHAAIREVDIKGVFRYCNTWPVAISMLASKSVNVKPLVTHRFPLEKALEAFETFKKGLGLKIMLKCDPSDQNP
UniProt Q96H20: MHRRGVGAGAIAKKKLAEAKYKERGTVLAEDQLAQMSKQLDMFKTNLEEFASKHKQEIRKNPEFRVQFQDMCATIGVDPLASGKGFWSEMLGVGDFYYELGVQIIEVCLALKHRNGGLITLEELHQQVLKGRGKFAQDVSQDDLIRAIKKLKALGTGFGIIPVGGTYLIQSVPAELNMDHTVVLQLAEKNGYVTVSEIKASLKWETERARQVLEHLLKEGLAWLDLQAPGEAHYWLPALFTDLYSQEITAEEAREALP
UniProt P55769: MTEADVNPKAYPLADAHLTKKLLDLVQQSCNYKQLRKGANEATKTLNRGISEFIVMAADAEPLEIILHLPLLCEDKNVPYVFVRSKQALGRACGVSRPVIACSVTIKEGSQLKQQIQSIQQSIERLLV
UniProt A6NHR9: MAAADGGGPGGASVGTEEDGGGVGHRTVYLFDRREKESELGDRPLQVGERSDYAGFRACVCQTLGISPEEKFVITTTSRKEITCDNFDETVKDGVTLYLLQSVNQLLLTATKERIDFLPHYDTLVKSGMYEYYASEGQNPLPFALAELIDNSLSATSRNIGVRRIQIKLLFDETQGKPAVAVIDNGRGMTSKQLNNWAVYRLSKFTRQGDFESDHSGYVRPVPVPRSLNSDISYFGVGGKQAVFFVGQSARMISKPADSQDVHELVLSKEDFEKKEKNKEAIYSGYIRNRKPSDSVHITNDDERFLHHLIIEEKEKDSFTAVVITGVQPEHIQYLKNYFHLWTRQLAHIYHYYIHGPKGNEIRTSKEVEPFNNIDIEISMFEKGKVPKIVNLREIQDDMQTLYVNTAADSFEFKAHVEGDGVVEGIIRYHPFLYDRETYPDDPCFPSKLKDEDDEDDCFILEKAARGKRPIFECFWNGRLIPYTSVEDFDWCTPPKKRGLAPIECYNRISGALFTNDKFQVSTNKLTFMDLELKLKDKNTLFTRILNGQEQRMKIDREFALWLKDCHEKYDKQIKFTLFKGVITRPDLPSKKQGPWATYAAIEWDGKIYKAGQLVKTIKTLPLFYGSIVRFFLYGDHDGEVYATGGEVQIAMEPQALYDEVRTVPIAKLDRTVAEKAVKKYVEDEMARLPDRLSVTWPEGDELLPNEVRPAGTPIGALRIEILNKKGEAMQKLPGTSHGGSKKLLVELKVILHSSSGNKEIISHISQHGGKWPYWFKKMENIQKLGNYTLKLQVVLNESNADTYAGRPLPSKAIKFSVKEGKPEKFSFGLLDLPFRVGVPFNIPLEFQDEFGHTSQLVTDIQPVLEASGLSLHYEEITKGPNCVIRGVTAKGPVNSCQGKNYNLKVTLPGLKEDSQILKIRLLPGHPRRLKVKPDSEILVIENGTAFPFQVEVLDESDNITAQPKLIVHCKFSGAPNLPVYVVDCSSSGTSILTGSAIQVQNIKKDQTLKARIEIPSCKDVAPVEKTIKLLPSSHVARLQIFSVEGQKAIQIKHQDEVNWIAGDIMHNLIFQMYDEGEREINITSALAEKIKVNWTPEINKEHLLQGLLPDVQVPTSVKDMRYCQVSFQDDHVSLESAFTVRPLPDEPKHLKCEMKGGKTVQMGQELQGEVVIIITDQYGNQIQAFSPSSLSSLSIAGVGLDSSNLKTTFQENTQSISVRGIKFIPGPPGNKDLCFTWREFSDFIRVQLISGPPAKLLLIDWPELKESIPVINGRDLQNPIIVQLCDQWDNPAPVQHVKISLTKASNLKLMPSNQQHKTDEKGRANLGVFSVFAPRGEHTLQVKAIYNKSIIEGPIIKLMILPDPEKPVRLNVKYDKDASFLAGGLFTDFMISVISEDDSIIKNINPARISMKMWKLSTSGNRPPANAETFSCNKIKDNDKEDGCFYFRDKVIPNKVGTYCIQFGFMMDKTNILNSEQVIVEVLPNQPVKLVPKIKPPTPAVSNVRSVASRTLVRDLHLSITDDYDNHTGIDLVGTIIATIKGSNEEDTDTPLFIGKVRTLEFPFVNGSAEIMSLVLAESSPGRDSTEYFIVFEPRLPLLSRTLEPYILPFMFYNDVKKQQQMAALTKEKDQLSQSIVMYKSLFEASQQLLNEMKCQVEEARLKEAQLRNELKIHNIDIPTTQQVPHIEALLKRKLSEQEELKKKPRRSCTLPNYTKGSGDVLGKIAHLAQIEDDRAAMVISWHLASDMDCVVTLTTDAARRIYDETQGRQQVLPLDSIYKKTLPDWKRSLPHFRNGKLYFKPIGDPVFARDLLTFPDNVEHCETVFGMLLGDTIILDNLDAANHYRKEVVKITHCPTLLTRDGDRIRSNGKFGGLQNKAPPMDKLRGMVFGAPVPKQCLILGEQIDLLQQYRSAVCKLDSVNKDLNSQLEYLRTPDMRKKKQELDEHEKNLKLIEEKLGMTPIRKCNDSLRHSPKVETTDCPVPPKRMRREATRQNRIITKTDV
UniProt Q8TAQ2, whole entry, looked up: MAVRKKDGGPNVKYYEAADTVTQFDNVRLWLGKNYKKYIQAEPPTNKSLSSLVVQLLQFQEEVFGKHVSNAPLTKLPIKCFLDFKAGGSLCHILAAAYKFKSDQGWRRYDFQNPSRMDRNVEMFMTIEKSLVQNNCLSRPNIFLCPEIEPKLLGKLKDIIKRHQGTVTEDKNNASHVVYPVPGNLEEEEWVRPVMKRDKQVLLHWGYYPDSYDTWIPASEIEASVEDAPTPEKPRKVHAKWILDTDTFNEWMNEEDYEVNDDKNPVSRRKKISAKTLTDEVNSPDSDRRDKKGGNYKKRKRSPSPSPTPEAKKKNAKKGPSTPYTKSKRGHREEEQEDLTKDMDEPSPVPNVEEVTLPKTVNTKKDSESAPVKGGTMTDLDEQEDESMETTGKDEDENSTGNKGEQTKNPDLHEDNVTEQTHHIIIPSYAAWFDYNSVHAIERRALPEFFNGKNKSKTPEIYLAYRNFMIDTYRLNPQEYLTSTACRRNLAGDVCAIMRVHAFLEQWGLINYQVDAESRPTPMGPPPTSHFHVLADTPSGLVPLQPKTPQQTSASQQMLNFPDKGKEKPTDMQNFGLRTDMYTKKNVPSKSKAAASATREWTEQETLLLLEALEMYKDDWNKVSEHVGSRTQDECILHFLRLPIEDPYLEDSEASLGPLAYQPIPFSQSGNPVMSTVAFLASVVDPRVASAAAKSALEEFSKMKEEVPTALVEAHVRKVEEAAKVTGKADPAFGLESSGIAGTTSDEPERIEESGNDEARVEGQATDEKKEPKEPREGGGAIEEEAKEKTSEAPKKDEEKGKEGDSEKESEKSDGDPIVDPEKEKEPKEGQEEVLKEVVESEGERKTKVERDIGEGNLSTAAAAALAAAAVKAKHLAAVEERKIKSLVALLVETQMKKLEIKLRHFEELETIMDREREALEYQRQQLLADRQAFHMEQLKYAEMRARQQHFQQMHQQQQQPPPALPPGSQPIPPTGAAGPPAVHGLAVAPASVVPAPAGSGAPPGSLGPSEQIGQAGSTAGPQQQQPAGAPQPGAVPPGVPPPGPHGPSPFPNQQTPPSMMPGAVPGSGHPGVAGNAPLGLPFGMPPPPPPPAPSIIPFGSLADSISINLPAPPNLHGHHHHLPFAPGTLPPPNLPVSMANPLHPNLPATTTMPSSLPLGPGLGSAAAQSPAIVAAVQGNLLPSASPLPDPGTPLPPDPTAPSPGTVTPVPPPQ

[2] = compound: C/C(=N\NC(=O)C1=CC(=CC=C1)S(=O)(=O)N2CCOCC2)/C3=C(C=CC(=C3)Cl)O
Procedure, shortened: as §1

[3] = compound: C1=CC(=CC=C1C2=NC3=C(N2)C=C(C=C3)C(=O)N)OC4=CC=C(C=C4)Cl
Procedure, shortened: as §1

[4] = compound: C1=CC2=C(C=CC(=C2)/C=C\3/C(=O)NC(=NCC4=CC=CS4)S3)N=C1
Procedure, shortened: as §1

[5] = compound: C1=CC2=NC=CN=C2C=C1/C=C/3\C(=O)NC(=O)S3
Procedure, shortened: as §1

[6] = compound: C1=CC=C(C=C1)C2=NC(=C(N2)C3=CC=NC=C3)C4=CC(=C(C=C4)Cl)O
Procedure, shortened: as §1

[7] = compound: C1=CC=C2C(=C1)C3=NNC4=CC=CC(=C43)C2=O
Procedure, shortened: as §1

[8] = compound: C1CCN(C1)C(=O)NC2=CC=CC(=C2)NC3=NC=C(C(=N3)NCCC4=CN=CN4)Br
Procedure, shortened: as §1

[9] = compound: C1CN(CCC1(CC2=CC=C(C=C2)Cl)N)C3=NC=NC4=C3C=CN4
Procedure, shortened: as §1

[10] = compound: C1COCCN1CCN2C3=CC=CC=C3N=C2NC(=O)C4=CC(=CC=C4)[N+](=O)[O-] [IRAK-1-4 Inhibitor I]
Procedure, shortened: as §1

Measured: log2 fold change

SNX9 (UniProt Q9Y5X1)
inactive: [1] 0.018 | [2] 0.026 | [3] 0.021 | [4] -0.012 | [5] 0.01 | [6] 0.027 | [7] -0.024 | [8] 0.004 | [9] 0.006 | [10] -0.008

SPAG9 (UniProt O60271)
inactive: [1] 0.014 | [2] -0.014 | [3] 0.037 | [4] 0 | [5] 0.003 | [6] -0.002 | [7] 0.006 | [8] -0.02 | [9] 0.004 | [10] 0.007

SMARCD1 (UniProt Q96GM5)
inactive: [1] -0.015 | [2] -0.033 | [3] 0.024 | [4] -0.081 | [5] 0.045 | [6] 0.025 | [7] -0.036 | [8] -0.014 | [9] 0.031 | [10] -0.036

SNTA1 (UniProt Q13424)
inactive: [1] -0.027 | [2] -0.072 | [3] 0.04 | [4] -0.042 | [5] -0.017 | [6] -0.011 | [7] 0.034 | [8] 0.013 | [9] -0.008 | [10] 0.038

SNRPD1 (UniProt P62314)
inactive: [1] -0.01 | [2] 0.031 | [3] 0.007 | [4] 0.001 | [5] 0.033 | [6] 0.005 | [7] -0.024 | [8] -0.004 | [9] 0.009 | [10] 0.065

SNRNP70 (UniProt P08621)
inactive: [1] -0.025 | [2] 0.027 | [3] 0.002 | [4] 0.031 | [5] 0.011 | [6] -0.013 | [7] 0.037 | [8] -0.01 | [9] -0.027 | [10] 0

SORD (UniProt Q00796)
inactive: [1] 0.014 | [2] 0.027 | [3] 0.021 | [4] -0.022 | [5] -0.004 | [6] 0.024 | [7] 0.01 | [8] 0.041 | [9] 0.014 | [10] 0.001

SMG9 (UniProt Q9H0W8)
inactive: [1] 0.033 | [2] 0.035 | [3] 0.025 | [4] 0.016 | [5] 0.007 | [6] 0.044 | [7] -0.069 | [8] -0.011 | [9] 0.065 | [10] -0.014

SNF8 (UniProt Q96H20)
inactive: [1] 0.004 | [2] -0.028 | [3] -0.027 | [4] 0.014 | [5] -0.019 | [6] 0.049 | [7] -0.049 | [8] 0.01 | [9] 0.025 | [10] -0.008

Fetched one by one from the entries so far, two records:
SORD (UniProt Q00796)
inactive: [1] 0.014 | [2] 0.027 | [3] 0.021 | [4] -0.022 | [5] -0.004 | [6] 0.024 | [7] 0.01 | [8] 0.041 | [9] 0.014 | [10] 0.001

SNRPD1 (UniProt P62314)
inactive: [1] -0.01 | [2] 0.031 | [3] 0.007 | [4] 0.001 | [5] 0.033 | [6] 0.005 | [7] -0.024 | [8] -0.004 | [9] 0.009 | [10] 0.065

Going on with the list.

SMU1 (UniProt Q2TAY7)
inactive: [1] 0.005 | [2] -0.014 | [3] -0.004 | [4] 0.019 | [5] 0.027 | [6] -0.009 | [7] 0.013 | [8] -0.018 | [9] -0.031 | [10] 0.002

SNU13 (UniProt P55769)
inactive: [1] 0.033 | [2] 0.068 | [3] 0.013 | [4] -0.051 | [5] -0.031 | [6] 0.02 | [7] 0 | [8] 0.013 | [9] 0.031 | [10] -0.009

SMCHD1 (UniProt A6NHR9)
inactive: [1] 0.008 | [2] 0.126 | [3] 0.001 | [4] -0.02 | [5] -0.033 | [6] 0.022 | [7] -0.027 | [8] 0.019 | [9] 0.047 | [10] 0.013

SORT1 (UniProt Q99523)
inactive: [1] -0.008 | [2] -0.025 | [3] 0.041 | [4] 0.006 | [5] -0.01 | [6] -0.015 | [7] -0.016 | [8] -0.015 | [9] 0.018 | [10] 0.028

SNRPC (UniProt Q5TAL2)
inactive: [1] -0.049 | [2] 0.033 | [3] 0.066 | [4] 0.044 | [5] -0.021 | [6] -0.03 | [7] 0.011 | [8] -0.053 | [9] 0.009 | [10] 0.049

SMARCC2 (UniProt Q8TAQ2)
inactive: [1] 0.01 | [2] 0.026 | [3] -0.006 | [4] 0.008 | [5] -0.002 | [6] -0.01 | [7] -0.02 | [8] -0.019 | [9] 0.003 | [10] 0.018
